In this experiment the target is c-Cbl (UniProt P22681). Nature of the experiment: co-purification with c-Cbl from JMC-D3 lysate (Ni2+-chelation column, then agarose-immobilized anti-c-Cbl); bands identified by LC-MS/MS.

No constants are given. Whether binding was seen depends on the method and setting. Binding seen in cells or lysates may run through a third protein. Some results given as binding are weak or reduced against the parent protein; the word gives no strength.

B1: TULA from JMC-D3 cells (protein)
chain: MAAGETQLYAKVSNKLKSRSSPSLLEPLLAMGFPVHTALKALAATGRKTAEEALAWLHDHCNDPSLDDPIPQEYALFLCPTGPLLEKLQEFWRESKRQCAKNRAHEVFPHVTLCDFFTCEDQKVECLYEALKRAGDRLLGSFPTAVPLALHSSISYLGFFVSGSPADVIREFAMTFATEASLLADCSVKPCTKQLHLTLAHKFYPHHQRTLEQLARAIPLGHSCQWTAALYSRDMRFVHYQTLRALFQYKPQNVDELTLSPGDYIFVDPTQQDEASEGWVIGISQRTGCRGFLPENYTDRASESDTWVKHRMYTFSLATDLNSRKDGEASSRCSGEFLPQTARSLSSLQALQATVARKSVLVVRHGERVDQIFGKAWLQQCSTPDGKYYRPDLNFPCSLPRRSRGIKDFENDPPLSSCGIFQSRIAGDALLDSGIRISSVFASPALRCVQTAKLILEELKLEKKIKIRVEPGIFEWTKWEAGKTTPTLMSLEELKEANFNIDTDYRPAFPLSALMPAESYQEYMDRCTASMVQIVNTCPQDTGVILIVSHGSTLDSCTRPLLGLPPRECGDFAQLVRKIPSLGMCFCEENKEEGKWELVNPPVKTLTHGANAAFNWRNWISGN
Take B1: the binding result was “binds”.

Values taken from patent US20100160221A1.
